Data as given in PubChem BioAssay AID1508597 (Cure First, 2020)

Screen: 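Genes whose silencing sensitises or protects ovarian cancer cells against rucaparib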 (primary screen)
Cells: human ovarian carcinoma lines grown from tumours: OCI-P5x (papillary serous) and OCI-C5x (clear cell)
Knock-down reagent: siRNA pool against human genes, 1.25 pmol siRNA per well
Timing: 72 h or 96 h, depending on the cell culture
Conditions: rucaparib 20 µM (about IC30) or vehicle, present until read-out
Rucaparib or vehicle: Vehicle
Cell line: OCI-C5x (clear cell)
Measurement: 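ATP luminescence measured at 72 or 96 h according to the culture, then normalised and expressed as percent viability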
Direction: viability, normalised: higher = more viable cells remaining
Rule for the call: 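Active when normalised viability falls below 80 percent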
Meaning of the calls: active = viability under 80%; inactive = viability 80% or more
Shown is a random part of the about 2,100 reagents, in one setting of the screen. 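Calls flag viability under 80% in either arm, not effects specific to rucaparib; the reference for percent is not stated.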 Unmarked entries are inactive. Not given: the 100% reference.

TGFB1 (GeneID 7040), technical replicate 1
- viability, normalised (%): 56.1 (active)

TGFB1 (GeneID 7040), technical replicate 2
- viability, normalised (%): 80

TGFB1 (GeneID 7040), technical replicate 3
- viability, normalised (%): 51.6 (active)

TTF2 (GeneID 8458), technical replicate 1
- viability, normalised (%): 59.2 (active)

TTF2 (GeneID 8458), technical replicate 2
- viability, normalised (%): 71 (active)

TTF2 (GeneID 8458), technical replicate 3
- viability, normalised (%): 74.5 (active)

DMC1 (GeneID 11144), technical replicate 1
- viability, normalised (%): 44.3 (active)

DMC1 (GeneID 11144), technical replicate 2
- viability, normalised (%): 41.9 (active)

DMC1 (GeneID 11144), technical replicate 3
- viability, normalised (%): 39.4 (active)

KSR1 (GeneID 8844), technical replicate 1
- viability, normalised (%): 55.2 (active)

KSR1 (GeneID 8844), technical replicate 2
- viability, normalised (%): 51.5 (active)

KSR1 (GeneID 8844), technical replicate 3
- viability, normalised (%): 47.9 (active)

RBBP4 (GeneID 5928), technical replicate 1
- viability, normalised (%): 31.3 (active)

RBBP4 (GeneID 5928), technical replicate 2
- viability, normalised (%): 29.2 (active)

RBBP4 (GeneID 5928), technical replicate 3
- viability, normalised (%): 32.1 (active)

CDKL5 (GeneID 6792), technical replicate 1
- viability, normalised (%): 72.6 (active)

CDKL5 (GeneID 6792), technical replicate 2
- viability, normalised (%): 63.8 (active)

CDKL5 (GeneID 6792), technical replicate 3
- viability, normalised (%): 71.7 (active)

BRD7 (GeneID 29117), technical replicate 1
- viability, normalised (%): 58.3 (active)

BRD7 (GeneID 29117), technical replicate 2
- viability, normalised (%): 61.4 (active)

BRD7 (GeneID 29117), technical replicate 3
- viability, normalised (%): 43.2 (active)

PIK3R2 (GeneID 5296), technical replicate 1
- viability, normalised (%): 35.8 (active)

PIK3R2 (GeneID 5296), technical replicate 2
- viability, normalised (%): 43.7 (active)

PIK3R2 (GeneID 5296), technical replicate 3
- viability, normalised (%): 46.2 (active)

BRPF1 (GeneID 7862), technical replicate 1
- viability, normalised (%): 41.3 (active)

BRPF1 (GeneID 7862), technical replicate 2
- viability, normalised (%): 39 (active)

BRPF1 (GeneID 7862), technical replicate 3
- viability, normalised (%): 47.2 (active)

RAX2 (GeneID 84839), technical replicate 1
- viability, normalised (%): 64 (active)

RAX2 (GeneID 84839), technical replicate 2
- viability, normalised (%): 51.5 (active)

RAX2 (GeneID 84839), technical replicate 3
- viability, normalised (%): 46.5 (active)

ETF1 (GeneID 2107), technical replicate 1
- viability, normalised (%): 32.6 (active)

ETF1 (GeneID 2107), technical replicate 2
- viability, normalised (%): 38.5 (active)

ETF1 (GeneID 2107), technical replicate 3
- viability, normalised (%): 33.6 (active)

Records listed so far whose gene name begins with C or c (3):
CDKL5 (GeneID 6792), technical replicate 1
- viability, normalised (%): 72.6 (active)

CDKL5 (GeneID 6792), technical replicate 2
- viability, normalised (%): 63.8 (active)

CDKL5 (GeneID 6792), technical replicate 3
- viability, normalised (%): 71.7 (active)
